Source: PubChem BioAssay AID652054 (National Center for Advancing Translational Sciences (NCATS), 2013)
The whole screen tested about 360,000 compounds, of which about 9,100 (2.5%) were called active. Inconclusive results, whose numbers are uncertain, are shown with a selection of clear calls. Rule as the data show it: active = max response below about -50%; inconclusive = no clear call, values can overlap the other calls; inactive = above that.

Chains of the proteins cited; added tags and fusions are not shown.
UniProt P35462, whole entry, looked up: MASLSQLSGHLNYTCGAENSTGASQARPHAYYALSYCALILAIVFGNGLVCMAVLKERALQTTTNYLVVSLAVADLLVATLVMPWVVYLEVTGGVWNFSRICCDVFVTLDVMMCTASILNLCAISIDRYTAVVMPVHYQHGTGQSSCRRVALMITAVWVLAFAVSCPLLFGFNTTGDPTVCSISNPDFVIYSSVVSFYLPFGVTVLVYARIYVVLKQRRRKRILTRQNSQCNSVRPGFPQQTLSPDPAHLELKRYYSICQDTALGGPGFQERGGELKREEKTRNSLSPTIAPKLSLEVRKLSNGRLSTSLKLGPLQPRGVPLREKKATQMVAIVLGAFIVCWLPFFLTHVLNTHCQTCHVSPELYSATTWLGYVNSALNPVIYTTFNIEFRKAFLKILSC

molecular target: D(3) dopamine receptor (Homo sapiens) (UniProt P35462); experiment: qHTS of D3 Dopamine Receptor Antagonist: qHTS; settings: D3R cells, DiscoveRx beta-arrestin luminescence, antagonist mode; active compounds read low
Summary of the method: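 Cells plated overnight at 1500 cells/well, then exposed to library compounds with dopamine controls for 90 minutes at 37 degrees C. DiscoveRx reagent added for 30–60 minutes at room temperature; luminescence read, quantitative HTS format.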
% is scaled to controls: 0 for no effect and ±100 for the full control effect.

Max response, negative = inhibition, inconclusive:
Cc1cccc(NC(=O)c2onc3c2CCCC3)c1C -38.1%
CC(=O)c1ccc(Oc2ncnc(N)c2[N+](=O)[O-])cc1 -35.1%
Cc1cccc(Cc2cnc(N3C(=N)SC(c4ccccc4)C3=O)s2)c1 (stereo not drawn) -39.9%
CN(C)CCC1(C2=CCCC2)CC/C(=C/c2ccc(Cl)cc2)C1=O (stereo not drawn) -38.3%
Cc1ccc(C)n1C1CCS(=O)(=O)C1 (stereo not drawn) -40.9%
O=C(O)c1nc(NCCc2ccccc2)ncc1Cl -38.3%
COc1cc(CN2CCN(c3cccc(C)c3C)CC2)cc(OC)c1O -49.3%
c1ccc(-c2noc(CSc3nnc(Cc4cccs4)n3-c3ccccc3)n2)cc1 -31.5%
CC(C)NC(=O)NC(=O)COC(=O)c1ccc(S(=O)(=O)Nc2ccccc2)cc1 -36%
O=C(COc1ccc(Br)cc1Cl)NC1CCN(Cc2ccccc2)CC1 -38.6%
CNC(=O)c1c(NC(=O)C2=COCCO2)sc2c1CCC(C)C2 (stereo not drawn) -41.7%
CC(=O)c1cn(CC(=O)Nc2ccccc2C)c2ccccc12 -33.8%
CCCCc1cc2ccccc2c(OCCN(C)C)n1 -42.7%
CCCCN(c1ccccc1)S(=O)(=O)c1cccc(C(=O)Nc2c(C)n(C)n(-c3ccccc3)c2=O)c1 -37.3%
COc1ccc(Oc2cccc(Cl)c2CNC(=O)CCCC(=O)O)cc1 -30.5%
O=C(CC1(O)C(=O)N(Cc2ccccc2)c2ccccc21)c1ccncc1 (stereo not drawn) -41.8%
Cc1cc(C)c2c(CN(Cc3ccccc3)Cc3ccccc3)cc(=O)oc2c1 -38.6%
FC(F)(F)c1ccc(-c2nc3ccccc3s2)cc1 -33.5%
O=C(CN1C(=O)/C(=C/c2ccco2)SC1=S)Nc1ccc(O)c(C(=O)O)c1 -39.3%
COc1ccc(C2=NOC(C(=O)Nc3c(C)n(C)n(-c4ccccc4)c3=O)C2)cc1OC (stereo not drawn) -39.4%
CCn1c(=N)c(C(=O)NCCCOC)cc2c(=O)n3cccc(C)c3nc21 -33.9%
O=C1C=CC(=O)N1N(c1ccccc1)c1ccccc1 -42.2%
O=C(CSc1ccsc1[N+](=O)[O-])NCc1ccccc1 -31.1%
Cc1cc(C)n2cc(CSc3ccc(Br)cc3)nc2n1 -43.8%
COc1cc2nc(-c3ccccc3C)oc(=O)c2cc1OC -34%
CCN(C[C@H]1N[C@@](CC)(C(=O)OC)[C@H]2C(=O)N(C)C(=O)[C@@H]12)S(=O)(=O)c1ccc(C)cc1 -35.8%
Cc1c(C(O)CN2CCN(Cc3ccc4c(c3)OCO4)CC2)c2ccccc2n1C (stereo not drawn) -39.8%
CCN=C(NCC)SC1CC(=O)N(c2cccc(OC)c2)C1=O (stereo not drawn) -40.1%
S=c1cn[nH]c2ccccc12 -33.9%
COc1ccccc1Cc1c(-c2ccc(C)cc2)nc2c(C)cc(Br)cn12 -47.7%
Cc1ccc[n+](C(C)C(=O)c2ccc(Cl)cc2)c1 (stereo not drawn) -41.7%
CCCn1c(=O)c(C(=O)Nc2ccccc2N)c(O)c2ccccc21 -32.6%
Cn1c(/C=C/c2ccc(Cl)cc2Cl)c([N+](=O)[O-])c(=O)n(C)c1=O -37.2%
CC1CN(C2CCN(S(=O)(=O)c3ccc(F)cc3)CC2)CC(C)O1 (stereo not drawn) -40.7%
COc1ccc2nc(NC(=O)c3ccc([N+](=O)[O-])o3)sc2c1 -41.7%
COc1ccc(N2CCN(CCCNC(=O)C(=O)c3c(C)n(C)c4ccccc34)CC2)cc1 -49.2%

Arranged by molar mass (largest number first): 4 of the compounds above.
Max response, negative = inhibition, inconclusive:
Cn1c(/C=C/c2ccc(Cl)cc2Cl)c([N+](=O)[O-])c(=O)n(C)c1=O -37.2%
CCN=C(NCC)SC1CC(=O)N(c2cccc(OC)c2)C1=O (stereo not drawn) -40.1%
CC(=O)c1cn(CC(=O)Nc2ccccc2C)c2ccccc12 -33.8%
COc1cc2nc(-c3ccccc3C)oc(=O)c2cc1OC -34%

Following part:

Max response, negative = inhibition, active:
COc1ccc(CNCCS(=O)(=O)NC2CCCCC2)cc1 -52.7%
C=CCc1c(C)nc(C)nc1N/N=C/c1ccccc1O -113%
O=C(/C=C/c1ccncc1)c1ccc(NC(=O)c2ccccc2F)cc1 -66.5%
FC(F)(F)c1ccccc1NC(=S)NC1CCN(Cc2ccccc2)CC1 -58.1%
CN(C)c1nc(-c2ccccc2)nnc1C(F)(F)F -64.5%
COC/C=C/C1=CC2=CC(=O)C(C)(OC(=O)c3cnc4ccccc4n3)C(=O)C2=CN1Cc1ccccc1 (stereo not drawn) -64.7%
CC(C)c1[nH]nc2c1C1(CCN(Cc3ccccc3)CC1)C(C#N)=C(N)O2 -92%
CC1=CC(C)(C)n2c(O)c(C3=NC(=S)NC3=O)c3cc(OC(=O)c4cccc5ccccc45)cc1c32 -57.7%
O=C(C1=C[C@@H](c2csc3ccccc23)C[C@@H](OCc2ccc(CO)cc2)O1)N1CCN(Cc2ccccc2)CC1 -52.6%
COc1ccc(-c2nc(CS(=O)CC(=O)NCc3cccnc3)c(C)o2)cc1OC (stereo not drawn) -53.3%
Oc1c(CN2CCCCC2)cc(COCc2ccccc2)c2cccnc12 -125%
OCCC1CN(Cc2ccc3c(c2)CCO3)CCN1Cc1ccc(F)cc1 (stereo not drawn) -59.3%

Max response, negative = inhibition, inactive:
Cc1nc2c(C)cccc2cc1C(=O)N/N=C/c1cccnc1 8.26%
Cn1nnnc1NCc1c(F)cccc1Cl -9.47%
Cc1cc(Cl)ccc1OCC(=O)NCC(c1cccs1)N1CCOCC1 (stereo not drawn) -3.64%
O=C(Oc1cccc(Nc2ncnc3ccccc23)c1)c1cccnc1 14.2%
O=C(Cn1nnc(-c2ccccc2)n1)N=Nc1c(O)[nH]c2ccccc12 15%
Cc1ccc(C(=O)Nc2ccc(NC(=O)c3ccco3)c(C)c2)cc1 -5.49%
CCOC(=O)/C(C#N)=C(C)/C=C1\Sc2ccccc2N1CC 109%
CC(OC(=O)CCc1ccccc1)C(=O)Nc1ncc(Cl)cc1Cl (stereo not drawn) 5.34%
CCOC(=O)c1ccc(NC(=S)Nc2cccc(N)n2)cc1 1.29%
COC(=O)c1cc(NC(=O)CSc2ncn[nH]2)ccc1Cl 8.25%
